Article PMC8235097
Results are given in words; binding and its absence hold for the method and conditions named. In cells and extracts the contact can be indirect.

By UniProt entry, the sequences of proteins in these tests, tags left out. Residues count along the entry.
UniProt O75197, residues 32-1615: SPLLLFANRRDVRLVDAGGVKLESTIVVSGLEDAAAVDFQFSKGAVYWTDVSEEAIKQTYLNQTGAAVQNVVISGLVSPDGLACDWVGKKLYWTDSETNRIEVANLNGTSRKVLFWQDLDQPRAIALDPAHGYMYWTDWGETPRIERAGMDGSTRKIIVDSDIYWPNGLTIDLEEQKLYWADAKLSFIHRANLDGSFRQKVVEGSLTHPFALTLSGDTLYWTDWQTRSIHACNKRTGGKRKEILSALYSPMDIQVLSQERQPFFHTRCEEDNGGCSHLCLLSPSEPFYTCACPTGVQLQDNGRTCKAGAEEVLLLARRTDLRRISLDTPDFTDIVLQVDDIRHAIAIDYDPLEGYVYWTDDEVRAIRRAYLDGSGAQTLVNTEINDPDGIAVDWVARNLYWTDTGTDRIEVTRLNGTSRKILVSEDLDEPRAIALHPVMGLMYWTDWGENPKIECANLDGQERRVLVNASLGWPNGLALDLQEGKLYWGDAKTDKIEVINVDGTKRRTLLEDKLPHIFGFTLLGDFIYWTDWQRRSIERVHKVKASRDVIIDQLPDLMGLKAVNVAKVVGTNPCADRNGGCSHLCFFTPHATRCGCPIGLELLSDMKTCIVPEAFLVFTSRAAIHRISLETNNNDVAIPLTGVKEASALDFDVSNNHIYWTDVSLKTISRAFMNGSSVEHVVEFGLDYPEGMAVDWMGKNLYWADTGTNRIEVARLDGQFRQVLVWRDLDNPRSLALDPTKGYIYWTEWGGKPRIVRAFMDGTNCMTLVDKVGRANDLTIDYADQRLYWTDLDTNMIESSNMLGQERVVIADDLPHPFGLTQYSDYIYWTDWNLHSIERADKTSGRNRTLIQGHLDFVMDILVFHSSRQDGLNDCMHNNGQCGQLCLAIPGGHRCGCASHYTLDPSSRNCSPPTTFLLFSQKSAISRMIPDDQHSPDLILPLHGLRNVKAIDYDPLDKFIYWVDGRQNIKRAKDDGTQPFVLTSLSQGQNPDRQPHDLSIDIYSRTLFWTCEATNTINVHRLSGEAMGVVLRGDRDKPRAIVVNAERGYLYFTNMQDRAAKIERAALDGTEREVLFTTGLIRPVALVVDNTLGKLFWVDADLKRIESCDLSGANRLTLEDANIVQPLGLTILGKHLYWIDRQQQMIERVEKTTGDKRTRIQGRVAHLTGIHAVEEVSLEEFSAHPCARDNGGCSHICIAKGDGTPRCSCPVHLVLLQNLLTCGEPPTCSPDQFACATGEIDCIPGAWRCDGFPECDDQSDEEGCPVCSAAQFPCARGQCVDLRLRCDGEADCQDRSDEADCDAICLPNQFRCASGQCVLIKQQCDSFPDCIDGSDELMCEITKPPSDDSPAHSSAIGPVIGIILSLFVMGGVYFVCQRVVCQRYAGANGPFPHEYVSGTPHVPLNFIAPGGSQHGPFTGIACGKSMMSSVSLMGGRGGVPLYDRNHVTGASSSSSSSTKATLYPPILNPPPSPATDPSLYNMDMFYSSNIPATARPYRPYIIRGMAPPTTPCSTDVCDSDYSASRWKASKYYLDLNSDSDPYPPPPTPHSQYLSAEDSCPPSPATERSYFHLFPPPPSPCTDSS
UniProt Q6AYU4: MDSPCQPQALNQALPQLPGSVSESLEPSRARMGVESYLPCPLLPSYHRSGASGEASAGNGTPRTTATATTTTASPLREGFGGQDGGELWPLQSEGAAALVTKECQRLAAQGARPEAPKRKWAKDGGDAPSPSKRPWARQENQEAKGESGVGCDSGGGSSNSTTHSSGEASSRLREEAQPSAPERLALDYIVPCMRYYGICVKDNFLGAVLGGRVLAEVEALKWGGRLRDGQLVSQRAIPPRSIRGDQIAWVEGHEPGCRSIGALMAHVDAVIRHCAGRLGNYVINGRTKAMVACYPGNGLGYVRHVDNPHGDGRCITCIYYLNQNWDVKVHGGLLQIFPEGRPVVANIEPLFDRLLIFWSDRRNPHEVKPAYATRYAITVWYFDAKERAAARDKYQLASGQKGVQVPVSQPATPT
UniProt Q62630: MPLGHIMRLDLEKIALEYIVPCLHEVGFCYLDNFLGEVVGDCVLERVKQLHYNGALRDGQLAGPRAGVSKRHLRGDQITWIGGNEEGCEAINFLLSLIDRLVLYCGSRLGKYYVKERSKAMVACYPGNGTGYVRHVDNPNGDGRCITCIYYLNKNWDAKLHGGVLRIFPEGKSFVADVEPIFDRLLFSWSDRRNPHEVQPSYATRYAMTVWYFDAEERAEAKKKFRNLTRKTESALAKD

Molecular target: full-length human LRP5 with a C-terminal Myc tag (low-density lipoprotein receptor-related protein 5) (human) (UniProt O75197)
Assay: co-IP; whole-cell lysates (RIPA buffer) of adenovirus-infected neonatal rat cardiomyocytes exposed to hypoxia; precipitated with anti-Myc antibody and protein A/G-agarose, washed with EBC buffer (20 mM Tris, 500 mM NaCl, 1 mM EDTA, 0.5% NP-40); western blot

| binding | Substance |
| --- | --- |
| no binding | endogenous PHD1 (HIF-prolyl hydroxylase 1) (from UniProt Q6AYU4 1-415) (enzyme) |
| no binding | endogenous PHD3 (HIF-prolyl hydroxylase 3) (from UniProt Q62630 1-239) (enzyme) |
